From patent US20200061094A1, “COMPOSITIONS AND METHODS USING A POLYPHENOL FOR MUSCULOSKELETAL HEALTH” (Société des Produits Nestlé S.A., priority 2015, published 2020)
At least one compound was matched to its structure with a doubt left.

Tests used:
Format in all cases: cell-based, murine
[1] = system: C2C12 cells; assay: Creatine kinase (CK) activity / myotube differentiation in C2C12 myoblasts; conditions: 1 μM, C2C12, 4 days, vs control differentiation medium
[2] = system: MyoD; assay: MyoD mRNA expression in C2C12 myoblasts; conditions: 1.5 μM, day 3 and 4, non inflammatory conditions, normalized to GAPDH mRNA
[3] = system: Myogenin (MyoG); assay: Myogenin (MyoG) mRNA expression in C2C12 myoblasts; conditions: 1.5 μM, day 3 and 4, non inflammatory conditions, normalized to GAPDH mRNA
[4] = system: chemokine (C-X-C motif) ligand 1 (CXCL-1); assay: CXCL-1 mRNA expression in C2C12 myoblasts with TNF-α; conditions: 1.5 μM, inflammatory conditions (TNF-α 10 ng/ml), day 4, normalized to GAPDH mRNA
[5] = system: C-C motif ligand 5 (CCL-5); assay: CCL-5 (RANTES) mRNA expression in C2C12 myoblasts with TNF-α; conditions: 1.5 μM, inflammatory conditions (TNF-α 10 ng/ml), day 4, normalized to GAPDH mRNA
[6] = system: A disintegrin and metalloproteinase with thrombospondin motifs 4 (ADAMTS-4); assay: ADAMTS-4 mRNA expression in C2C12 myoblasts; conditions: 1.5 μM, in presence or absence of TNF-α 10 ng/ml, normalized to GAPDH mRNA
[7] = system: NF-κB (nuclear factor kappa-light-chain-enhancer of activated B cells); assay: NF-κB mRNA expression in C2C12 myoblasts; conditions: 1.5 μM, in presence or absence of TNF-α 10 ng/ml, normalized to GAPDH mRNA
[8] = system: cyclooxygenase-2 (COX-2); assay: COX-2 mRNA expression in C2C12 myoblasts; conditions: 1.5 μM, in presence or absence of TNF-α 10 ng/ml, normalized to GAPDH mRNA
[9] = system: Interleukin-6 (IL-6); assay: IL-6 mRNA expression in C2C12 myoblasts; conditions: 1.5 μM, in presence or absence of TNF-α 10 ng/ml, normalized to GAPDH mRNA
[10] = system: Forkhead box 03 (FOXO3); assay: FOXO3 mRNA expression (muscle protein breakdown) in C2C12 myoblasts; conditions: 1.5 μM, day 3 and 4, normalized to GAPDH mRNA

Question: Which results are given for `C/C=C1/[C@H](O[C@@H]2O[C@H](CO)[C@@H](O)[C@H](O)[C@H]2O)OC=C(C(=O)OC)[C@H]1CC(=O)OCCc1ccc(O)c(O)c1` [oleuropein]?
Answer: myotube differentiation (hypertrophy), creatine kinase activity [1]: increase myotube differentiation; MyoD expression (marker of myotube differentiation) [2]: increased; MyoG expression (marker of myotube differentiation) [3]: increased; CXCL-1 expression [4]: decreased; CCL-5 expression [5]: decreased; ADAMTS-4 expression [6]: decreased; NFK-B expression [7]: decreased; Cox-2 expression [8]: decreased; IL-6 expression [9]: decreased; FOXO3 expression (muscle protein breakdown) [10]: decreased
